Results as given in publication PMC5464891, “Utilizing combinatorial engineering to develop Tie2 targeting antagonistic angiopoetin-2 ligands as candidates for anti-angiogenesis therapy” (Oncotarget, 2017).
These are yes or no findings as the source states them, for the method shown. Some binding calls cover weakened binding; strength is not graded here.

By UniProt entry, the sequences of proteins in these tests, tags left out. Where a name states a change or a piece, a line headed by the entry shows the natural chain unless it says otherwise. Residues count along the entry.
UniProt Q02763: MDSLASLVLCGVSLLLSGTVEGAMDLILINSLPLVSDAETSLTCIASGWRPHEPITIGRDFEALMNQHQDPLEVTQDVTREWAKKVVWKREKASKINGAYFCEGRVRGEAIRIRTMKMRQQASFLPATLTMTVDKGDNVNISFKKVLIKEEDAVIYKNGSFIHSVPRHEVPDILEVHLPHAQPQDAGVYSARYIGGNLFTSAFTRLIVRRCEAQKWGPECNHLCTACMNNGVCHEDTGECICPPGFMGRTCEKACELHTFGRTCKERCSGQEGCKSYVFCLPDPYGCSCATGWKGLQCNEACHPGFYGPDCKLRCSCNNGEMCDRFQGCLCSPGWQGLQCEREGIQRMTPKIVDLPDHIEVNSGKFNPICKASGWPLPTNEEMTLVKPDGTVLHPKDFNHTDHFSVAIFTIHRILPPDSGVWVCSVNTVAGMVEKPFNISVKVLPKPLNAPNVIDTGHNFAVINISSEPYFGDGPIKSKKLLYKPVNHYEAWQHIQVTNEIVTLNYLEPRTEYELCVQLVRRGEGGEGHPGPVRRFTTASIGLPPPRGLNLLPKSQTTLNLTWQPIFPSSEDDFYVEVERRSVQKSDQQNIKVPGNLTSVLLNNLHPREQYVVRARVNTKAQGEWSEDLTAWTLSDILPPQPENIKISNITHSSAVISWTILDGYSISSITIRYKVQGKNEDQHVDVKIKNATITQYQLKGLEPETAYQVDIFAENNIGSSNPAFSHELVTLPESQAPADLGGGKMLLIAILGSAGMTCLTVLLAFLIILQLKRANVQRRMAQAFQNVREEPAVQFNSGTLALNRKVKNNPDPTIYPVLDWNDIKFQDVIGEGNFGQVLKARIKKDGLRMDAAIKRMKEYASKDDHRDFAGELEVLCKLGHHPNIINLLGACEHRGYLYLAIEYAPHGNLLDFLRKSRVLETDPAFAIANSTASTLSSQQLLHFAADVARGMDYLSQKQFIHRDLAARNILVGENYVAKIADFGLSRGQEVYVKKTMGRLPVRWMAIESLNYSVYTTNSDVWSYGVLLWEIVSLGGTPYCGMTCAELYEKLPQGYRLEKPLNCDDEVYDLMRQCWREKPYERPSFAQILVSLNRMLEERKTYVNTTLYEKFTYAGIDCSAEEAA
Cell-expressed Tie2 on TIME cells (human (endogenous in TIME cells)): residues 23-1124 of Q02763

Key:
[1] = target: Wild-type Ang2 binding domain (Ang2-BDWT), yeast-displayed (human) (UniProt O15123); assay: flow cytometry on cells; Ang2-BD displayed on yeast, soluble Tie2-Fc in 20 mM Hepes pH 7.0, 150 mM NaCl, 1% BSA, 1 h at room temperature; detected with anti-human Fc FITC; binding MFI divided by expression MFI (c-Myc) and normalized to Ang2-BDWT; only the binder purified
[2] = target: Cell-expressed Tie2 on TIME cells (human (endogenous in TIME cells)) (UniProt Q02763); assay: flow cytometry on cells; 10^5 TIME cells with different concentrations of Ang2-BD variants in PBS with 0.1% BSA, 2 h at 4°C; detected with APC anti-FLAG antibody; only the binder purified
[3] = target: Cell-expressed Tie2 on TIME cells (human (endogenous in TIME cells)) (UniProt Q02763); assay: flow cytometry on cells; competitive binding on TIME cells: Ang2-BD variants without and with 400 ng/ml Ang1 (1000 ng/ml Ang1 also for Ang2-BD_(C2.36)); anti-FLAG detection; only the binder purified

Recombinant human Tie2 (Ala23-Lys745) Fc fusion, soluble Tie2-Fc (from UniProt Q02763 23-745)
binding [1]: binds

B1: Ang2-BDWT, soluble (domain or fragment, human, UniProt O15123 281-496, looked up)
chain: FRDCAEVFKSGHTTNGIYTLTFPNSTEEIKAYCDMEAGGGGWTIIQRREDGSVDFQRTWKEYKVGFGNPSGEYWLGNEFVSQLTNQQRYVLKIHLKDWEGNEAYSLYEHFYLSSEELNYRIHLKGLTGTAGKISSISQPGNDFSTKDGDNDKCICKCSQMLTGGWWFDACGPSNLNGMYYPQRQNTNKFNGIKWYYWKGSGYSLKATTMMIRPADF
notes: N-linked carbohydrates removed with Endo Hf; also called wild-type Ang2-BD; parental Ang2-BD; source: Pichia pastoris GS115, purified from culture supernatant (HisTrap, Endo Hf treatment, Superdex 75); not shown: FLAG, N-terminal, kept
binding [2]: binds | binding [3]: binds
